The record followed here is PMC10180863.

Results are given in words; binding and its absence hold for the method and conditions named. For some of these results: Binding seen in cells or lysates may run through a third protein. Some results given as binding are weak or reduced against the parent protein; the word gives no strength. Where a sequence is shown, tags or fusion partners need not be part of it.

Experiment [1] deals with T1, FLAG-conjugated CRK3 (CPK-related protein kinase 3), cell-free (Arabidopsis thaliana) (UniProt Q9ZUZ2).
T1 sequence: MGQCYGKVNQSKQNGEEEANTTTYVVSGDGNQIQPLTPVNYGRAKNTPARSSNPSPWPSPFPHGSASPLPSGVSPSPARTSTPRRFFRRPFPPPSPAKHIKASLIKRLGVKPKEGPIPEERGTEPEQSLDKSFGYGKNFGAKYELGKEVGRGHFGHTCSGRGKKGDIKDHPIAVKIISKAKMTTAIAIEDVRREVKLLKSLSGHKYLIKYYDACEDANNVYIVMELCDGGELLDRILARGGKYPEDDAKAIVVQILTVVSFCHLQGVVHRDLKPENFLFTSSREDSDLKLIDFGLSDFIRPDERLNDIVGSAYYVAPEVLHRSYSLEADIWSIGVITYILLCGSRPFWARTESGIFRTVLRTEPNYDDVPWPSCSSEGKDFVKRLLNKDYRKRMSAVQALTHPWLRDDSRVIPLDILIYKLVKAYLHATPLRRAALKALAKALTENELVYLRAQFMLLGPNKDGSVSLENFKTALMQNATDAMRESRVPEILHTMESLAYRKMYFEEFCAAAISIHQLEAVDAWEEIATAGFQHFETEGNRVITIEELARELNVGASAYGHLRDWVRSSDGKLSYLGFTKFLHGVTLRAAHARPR
Description: AlphaScreen or HTRF; AlphaScreen luminescence; biotinylated PBL27 and FLAG-conjugated kinases from cell-free synthesis; E. coli dihydrofolate reductase as control protein; n = 3; method per ref. 29.

Experiment [2] concerns the target T2, FLAG-conjugated CRK2 (CPK-related protein kinase 2), cell-free (Arabidopsis thaliana) (UniProt Q9LJL9).
T2 sequence: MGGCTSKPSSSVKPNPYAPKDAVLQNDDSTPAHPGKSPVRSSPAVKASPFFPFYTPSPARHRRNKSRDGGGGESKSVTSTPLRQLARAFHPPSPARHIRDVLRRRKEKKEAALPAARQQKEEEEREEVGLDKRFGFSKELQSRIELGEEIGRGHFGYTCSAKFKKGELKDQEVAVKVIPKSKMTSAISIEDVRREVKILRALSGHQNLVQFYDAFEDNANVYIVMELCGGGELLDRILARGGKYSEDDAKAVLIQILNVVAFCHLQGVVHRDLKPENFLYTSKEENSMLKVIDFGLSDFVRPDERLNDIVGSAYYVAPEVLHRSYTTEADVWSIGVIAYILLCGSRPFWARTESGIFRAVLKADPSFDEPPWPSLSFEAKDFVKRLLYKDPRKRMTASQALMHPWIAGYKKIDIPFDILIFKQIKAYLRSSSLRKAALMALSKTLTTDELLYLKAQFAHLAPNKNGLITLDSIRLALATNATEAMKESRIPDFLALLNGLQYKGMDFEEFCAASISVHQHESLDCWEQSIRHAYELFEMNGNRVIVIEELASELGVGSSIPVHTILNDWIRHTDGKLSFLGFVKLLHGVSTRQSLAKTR
Described as above.

The target of experiment [3] is T3, FLAG-tagged CRK2 (CRK2-FLAG) (Arabidopsis thaliana) (UniProt Q9LJL9).
T3 sequence: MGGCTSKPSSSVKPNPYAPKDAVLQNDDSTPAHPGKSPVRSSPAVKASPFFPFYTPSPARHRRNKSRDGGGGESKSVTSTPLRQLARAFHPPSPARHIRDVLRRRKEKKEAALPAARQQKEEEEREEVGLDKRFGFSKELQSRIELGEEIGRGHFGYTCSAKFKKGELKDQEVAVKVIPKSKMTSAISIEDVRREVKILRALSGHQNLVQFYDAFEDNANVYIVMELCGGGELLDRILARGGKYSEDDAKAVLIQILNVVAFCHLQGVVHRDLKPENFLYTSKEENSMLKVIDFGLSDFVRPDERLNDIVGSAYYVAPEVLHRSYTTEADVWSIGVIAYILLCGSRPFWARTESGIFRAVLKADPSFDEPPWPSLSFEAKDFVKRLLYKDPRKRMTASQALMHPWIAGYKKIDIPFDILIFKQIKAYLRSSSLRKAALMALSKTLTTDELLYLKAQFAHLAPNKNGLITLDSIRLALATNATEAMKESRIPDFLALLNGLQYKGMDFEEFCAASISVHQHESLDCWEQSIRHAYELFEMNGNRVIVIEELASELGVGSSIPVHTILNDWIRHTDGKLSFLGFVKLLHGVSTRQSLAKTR
Briefly: co-IP; PBL27-HA and kinase-FLAG co-expressed in N. benthamiana leaf cells; total proteins precipitated with anti-FLAG (DYKDDDDK) magnetic beads overnight at 4 °C, washed with TBS with 0.5% NP-40; blots with anti-HA and anti-FLAG.

The target in experiment [4] is T4, FLAG-tagged CRK3 (CRK3-FLAG) (Arabidopsis thaliana) (UniProt Q9ZUZ2).
T4 sequence: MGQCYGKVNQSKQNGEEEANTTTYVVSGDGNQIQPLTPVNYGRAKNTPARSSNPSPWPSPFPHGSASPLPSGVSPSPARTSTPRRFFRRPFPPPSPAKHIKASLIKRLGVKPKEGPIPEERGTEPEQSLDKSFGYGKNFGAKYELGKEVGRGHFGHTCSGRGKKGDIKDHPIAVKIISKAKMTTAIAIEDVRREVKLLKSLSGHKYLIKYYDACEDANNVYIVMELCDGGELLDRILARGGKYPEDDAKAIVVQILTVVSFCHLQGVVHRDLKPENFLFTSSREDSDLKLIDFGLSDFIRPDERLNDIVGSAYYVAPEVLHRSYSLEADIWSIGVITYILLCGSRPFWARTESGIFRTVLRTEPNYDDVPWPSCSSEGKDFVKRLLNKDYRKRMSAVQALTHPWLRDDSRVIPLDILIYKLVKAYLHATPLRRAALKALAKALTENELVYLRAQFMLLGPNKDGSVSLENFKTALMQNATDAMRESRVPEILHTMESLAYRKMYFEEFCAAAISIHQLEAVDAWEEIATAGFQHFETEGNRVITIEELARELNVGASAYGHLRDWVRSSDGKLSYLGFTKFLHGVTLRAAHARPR
Described as above.

B1: biotinylated recombinant PBL27 protein (PBS1-like 27) (enzyme, UniProt Q1PDV6 1-513)
chain: MSGCLPCFGSSAKDAASKDSVKKELSAKDGSVTQSHHISLDKSKSRRGPEQKKELTAPKEGPTAHIAAQTFTFRELAAATKNFRPECLLGEGGFGRVYKGRLETTGQIVAVKQLDRNGLQGNREFLVEVLMLSLLHHPNLVNLIGYCADGDQRLLVYEYMPLGSLEDHLHDLPPDKEPLDWSTRMTIAAGAAKGLEYLHDKANPPVIYRDLKSSNILLGDGYHPKLSDFGLAKLGPVGDKTHVSTRVMGTYGYCAPEYAMTGQLTLKSDVYSFGVVFLELITGRKAIDNARAPGEHNLVAWARPLFKDRRKFPKMADPSLQGRYPMRGLYQALAVAAMCLQEQAATRPLIGDVVTALTYLASQTFDPNAPSGQNSRSGSGPPFIRTRDDRRSLGDGSSLDSPAETRSRLGSPATHKNSPDYRRRDMVREVNAGSEGGSETGGGSGRKWGLSDLEGQESQRGSPASVGRSSRGTPRNRDLDRERAVAEAKVWGENWRERKRATNGPGSFDSTND
modifications: biotin (biotin ligation site of the tag)
As to B1, the binding entry in experiment [1] and in experiment [2] was “binds” throughout.

B2: HA-tagged PBL27 (PBL27-HA) (enzyme, UniProt Q1PDV6 1-513)
chain: MSGCLPCFGSSAKDAASKDSVKKELSAKDGSVTQSHHISLDKSKSRRGPEQKKELTAPKEGPTAHIAAQTFTFRELAAATKNFRPECLLGEGGFGRVYKGRLETTGQIVAVKQLDRNGLQGNREFLVEVLMLSLLHHPNLVNLIGYCADGDQRLLVYEYMPLGSLEDHLHDLPPDKEPLDWSTRMTIAAGAAKGLEYLHDKANPPVIYRDLKSSNILLGDGYHPKLSDFGLAKLGPVGDKTHVSTRVMGTYGYCAPEYAMTGQLTLKSDVYSFGVVFLELITGRKAIDNARAPGEHNLVAWARPLFKDRRKFPKMADPSLQGRYPMRGLYQALAVAAMCLQEQAATRPLIGDVVTALTYLASQTFDPNAPSGQNSRSGSGPPFIRTRDDRRSLGDGSSLDSPAETRSRLGSPATHKNSPDYRRRDMVREVNAGSEGGSETGGGSGRKWGLSDLEGQESQRGSPASVGRSSRGTPRNRDLDRERAVAEAKVWGENWRERKRATNGPGSFDSTND
Turning to B2, the binding entry in experiment [3] and in experiment [4] was “binds” in each case.
